Laboratory results reported in paper PMC6617969.
Results are given in words; binding and its absence hold for the method and conditions named. Where a sequence is shown, tags or fusion partners need not be part of it.

Target: T1, His6‐DnaA‐FLAG (E. coli) (UniProt P03004)
T1 sequence: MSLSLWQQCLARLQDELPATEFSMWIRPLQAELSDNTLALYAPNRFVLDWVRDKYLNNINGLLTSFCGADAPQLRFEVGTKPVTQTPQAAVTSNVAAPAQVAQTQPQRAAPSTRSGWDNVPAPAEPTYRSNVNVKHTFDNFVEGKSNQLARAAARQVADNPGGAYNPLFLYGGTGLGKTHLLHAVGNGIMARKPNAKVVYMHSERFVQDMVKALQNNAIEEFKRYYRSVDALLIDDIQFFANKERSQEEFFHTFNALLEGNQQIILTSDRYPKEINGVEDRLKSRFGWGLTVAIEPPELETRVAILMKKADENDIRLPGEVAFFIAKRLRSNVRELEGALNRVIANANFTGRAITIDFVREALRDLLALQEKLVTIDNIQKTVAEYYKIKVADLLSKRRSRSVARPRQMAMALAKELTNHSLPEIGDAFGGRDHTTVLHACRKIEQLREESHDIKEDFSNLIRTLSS
Assay: pull-down; affinity tagged pull‐down of purified proteins; 1 × TBS containing 1 mM PMSF; western blotting with antibodies against FLAG or Myc; both purified

Substance: Myc‐tagged MSMEG_2415 (from UniProt A0QV17 1-192)
- binding: no binding
